# Not every detail of the peptide structures is certain; ends, links or a residue may be inferred. Peptide text beside a SMILES is read from it. * marks the point of attachment. Doxorubicin(3'-N) = COc1cccc2c1C(=O)c1c(O)c3c(c(O)c1C2=O)C[C@@](O)(C(=O)CO)C[C@@H]3O[C@H]1C[C@H](N*)[C@H](O)[C@H](C)O1
# Test system: LNCaP prostate tumor cells
# Assay: In vitro cytotoxicity of peptidyl derivatives of doxorubicin (Alamar Blue assay)
# Assay type: cell-based, human
# Conditions: FIG. 4; non-cleavable acetylated oligopeptide-doxorubicin conjugate vs unmodified doxorubicin
# Experimental: The cytotoxicities of the non-cleaveable oligopeptide-doxorubicin conjugates, prepared as described in Example 4, against a line of cells which is known to be killed by unmodified doxorubicin were assessed with an Alamar Blue assay. Specifically, cell cultures of LNCaP prostate tumor cells, which are a human metastatic prostate adenocarcinoma isolated from a needle biopsy of a lymph node (LNCaP.FGC: American Type Culture Collection, ATCC CRL 1740), or DuPRO cells in 96 well plates were diluted with medium containing various concentrations of a given conjugate (final plate well volume of 200 μl). The cells were incubated for 3 days at 37° C. and then 20 μl of Alamar Blue was added to the assay well. The cells were further incubated and the assay plates were read on a EL-310 ELISA reader at the dual wavelengths of 570 and 600 nm at 4 and 7 hours after addition of Alamar Blue. Relative percentage viability at the various concentration of conjugate tested was then calculated versus control (no conjugate) cultures. Cytotoxicities of unmodified doxorubicin and unmodified oligopeptide were also assessed.
smiles,measurement,value
COc1cccc2c1C(=O)c1c(O)c3c(c(O)c1C2=O)C[C@@](O)(C(=O)CO)C[C@@H]3O[C@H]1C[C@H](NC(=O)[C@H](C)NC(=O)[C@H](CO)NC(=O)[C@H](C)NC(=O)CNC(=O)[C@@H](NC(=O)[C@@H]2CCCN2C(=O)CNC(=O)[C@H](C)NC(C)=O)[C@@H](C)O)[C@H](O)[C@H](C)O1 [Compound 12d] (Ac-AGPTGASA-{Doxorubicin(3'-N)}),EC50 reduced relative to doxorubicin,greater than 300 fold
